PMC8311651, “Controlling Intramolecular Interactions in the Design of Selective, High-Affinity Ligands for the CREBBP Bromodomain” (Journal of Medicinal Chemistry, 2021)
These are yes or no findings as the source states them, for the method shown.

By UniProt entry, the sequences of proteins in these tests, tags left out. Residues count along the entry.
UniProt Q92793, residues 1081-1197: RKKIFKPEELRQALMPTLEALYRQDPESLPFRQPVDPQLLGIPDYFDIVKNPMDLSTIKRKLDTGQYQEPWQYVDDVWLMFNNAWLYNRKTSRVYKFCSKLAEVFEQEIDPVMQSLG

Target: CREBBP bromodomain (Homo sapiens, UniProt Q92793)
Assay: SEC; CREBBP bromodomain run in the presence or absence of compound 2 (50 μM); test for dimerisation in solution; both purified

binding: no binding
Substance: CREBBP bromodomain (from UniProt Q92793 1081-1197) (domain or fragment)
